The results in this text go back to paper PMC10366140.

The exact form of at least one protein or probe is not confirmed.

The data set concerns apRAD51C (apCX3 core) + apXRCC3 (apCX3 core). The experiment in a line: EMSA. Particulars: no added nucleotide or Mg listed, 4 C; EMSA: 20 mM Tris pH 8.0, 150 mM KCl, 4 C 15 min, 1% agarose 0.5x TBE; recombinant protein; label: internal FAM on the 11th dT; single-stranded DNA.

For the sequence TTTTTTTTTTTTTTTTTTTTT [poly-21dT], the binding result is given as “binds”.
